# Laboratory results: PubChem BioAssay AID2685 (National Center for Advancing Translational Sciences (NCATS), 2010)
# The list shows a part of the results. The main result of the screen is listed elsewhere. These columns were measured beside it and carry no call. Compounds called inactive in the main read-out are mostly missing here. Words in brackets tell the shape of the fitted curve; partial curves, single points and poor fits give uncertain potencies.
# Experiment: qHTS Assay for Lipid Storage Modulators in Drosophila S3 Cells;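 on cell number change: cells counted by Cell Tracker Red CMTPX staining in the red channel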
# Details: BODIPY lipid droplet fluorescence, 18-24 h; for cell number change: measured here: cell count max response, cells fed with added oleic acid
# Procedure, shortened: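 Laser-scanning cytometry quantifies lipid droplet accumulation (500–530 nm total intensity; droplet/cell object ratio) in oleic acid-fed (400 uM added) Drosophila S3 cells treated with a concentration series. 20 uM Triacsin C defined 100% inhibition.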
# [1] = measured here: lipid fluorescence (Fed channel) AC50, cells fed with added oleic acid
# [2] = measured here: cell number channel AC50, cells fed with added oleic acid
Compound,AC50 [1],cell number change,AC50 [2]
COC(=O)c1ccc(-c2ccc(/C=N/N3C(=O)C4C5C=CC(C6CC56)C4C3=O)o2)cc1 (configuration not stated),"25.9 µM [falling, partial curve, poor fit]",–,–
COc1cc(C(C(=O)NCC2CCCO2)N(C(=O)Cn2nnc3ccccc32)c2ccc(C(C)=O)cc2)ccc1O (configuration not stated),"4.11 µM [falling, partial curve]",–,–
COc1ccccc1OCc1nnc(SCC(N)=O)n1-c1ccccc1,"29.1 µM [rising, single point]",11.9%,–
COCCCN1C(=O)c2ccc(C(=O)N3CCN(c4ccccc4OC)CC3)cc2C1=O,"18.4 µM [rising, single point]",0.382%,–
Cc1ccc(-n2c(C)nnc2SCC(=O)N(C)c2c(N)n(Cc3ccccc3)c(=O)[nH]c2=O)cc1,"29.1 µM [rising, single point]",-6.56%,–
CS(=O)(=O)N(CCc1ccccc1)CC(=O)NCC1CCCO1 (configuration not stated),–,-34.5%,"8.2 µM [falling, partial curve, poor fit]"
O=c1nc(N/N=C/C=C/c2ccccc2)cn[nH]1,"25.9 µM [falling, partial curve]",-47.7%,"29.1 µM [falling, single point]"
COc1ccc(-n2c(SCC(=O)NC3CC3)nc3ccccc3c2=O)cc1OC,"1.46 µM [rising, full curve]",-11.4%,–
CCCc1nnc2c(N(C)S(=O)(=O)c3ccccc3)nc3ccccc3n12,"0.00517 µM [rising, full curve, poor fit]",-33%,"11.6 µM [falling, single point]"
COCCN(C(=O)c1csnn1)C(C(=O)NC1CCCCC1)c1ccccc1 (configuration not stated),"29.1 µM [rising, single point]",-7.62%,–
CCNC(=O)Nn1c(-c2ccccc2)nc2ccccc2c1=O,–,-11.3%,–
O=C1N=C(N2CCN(c3ccccc3)CC2)S/C1=C\c1cn[nH]c1-c1ccccc1,"2.31 µM [rising, partial curve, poor fit]",-28.1%,–
CCc1ccccc1NC(=O)c1cc(-c2ccco2)on1,–,-5.42%,–
Cc1ccc(N=CC2=C(O)CC(c3ccco3)CC2=O)cc1 (configuration not stated),"1.84 µM [falling, partial curve]",-51.5%,"5.8 µM [falling, partial curve]"
O=C(CCN1CCc2ccccc21)c1ccc2c(c1)OCCO2,"1.46 µM [rising, partial curve, poor fit]",-16.1%,–
COc1ccc(/C=C/C(=O)OCC(=O)NCCNC(=O)COC(=O)/C=C/c2ccc(OC)cc2)cc1,"11.6 µM [falling, partial curve]",2.65%,–
COc1ccc(-c2c(C)nn(-c3ccccc3)c2N)cc1,–,65.9%,"10.3 µM [rising, partial curve]"
CC(C)Cn1c(=O)c(C(=O)NCc2ccccn2)c(O)c2ccccc21,"0.164 µM [rising, full curve]",–,"0.116 µM [rising, full curve, poor fit]"
CCOC(=O)c1c(CN2CCN(CCO)CC2)n(C)c2cc(Br)c(OC)cc12,"13 µM [falling, partial curve]",-26.3%,–
CC(NC(=O)c1ccc(F)cc1)c1ccccc1 (configuration not stated),–,-1.53%,–
CCOC(=O)Cc1cc(=O)n2[nH]c(C)c(-c3ccccc3)c2n1,"3.66 µM [rising, full curve, poor fit]",19.5%,–
CCOc1ccc(C2C(C#N)=C(N)Oc3n[nH]c(C)c32)cc1OC(=O)C1CC1 (configuration not stated),"6.51 µM [rising, single point]",60.4%,"1.64 µM [rising, full curve]"
CCCCN(C)CCCNC(=O)c1ccc2c(c1)N(CC)C(=O)c1ccccc1S2=O (configuration not stated),"6.51 µM [rising, single point]",38.7%,"6.51 µM [rising, full curve]"
COc1ccccc1NS(=O)(=O)c1cc(NC(=O)C(C)NC(N)=O)ccc1N1CCCC1 (configuration not stated),"18.4 µM [rising, single point]",21%,–
COc1cccc(C(C(=O)NC(C)(C)C)N(C(=O)CCC(=O)Nc2cc(C)on2)C2CC2)c1OC (configuration not stated),–,-0.934%,–
O=C(NCc1ccc(F)cc1)c1cc(S(=O)(=O)N2CCCCC2)c[nH]1,"13 µM [falling, single point]",13.5%,–
COc1cccc(CSc2nnc(-c3ccco3)n2C)c1,–,-26.6%,"1.64 µM [falling, full curve, poor fit]"
CCn1c(N2CCN(C(=O)c3ccco3)CC2)nc2ccccc21,"0.13 µM [rising, full curve, poor fit]",1.1%,–
O=C(c1ccccc1/S(=N/S(=O)(=O)c1ccccc1)N1CCOCC1)N1CCOCC1 (configuration not stated),"29.1 µM [falling, single point]",2.07%,–

# Already shown: entries from further up.
Compound,AC50 [1],cell number change,AC50 [2]
CCOC(=O)c1c(CN2CCN(CCO)CC2)n(C)c2cc(Br)c(OC)cc12,"13 µM [falling, partial curve]",-26.3%,–
CC(NC(=O)c1ccc(F)cc1)c1ccccc1 (configuration not stated),–,-1.53%,–
CCOC(=O)Cc1cc(=O)n2[nH]c(C)c(-c3ccccc3)c2n1,"3.66 µM [rising, full curve, poor fit]",19.5%,–
CCOc1ccc(C2C(C#N)=C(N)Oc3n[nH]c(C)c32)cc1OC(=O)C1CC1 (configuration not stated),"6.51 µM [rising, single point]",60.4%,"1.64 µM [rising, full curve]"
CCCCN(C)CCCNC(=O)c1ccc2c(c1)N(CC)C(=O)c1ccccc1S2=O (configuration not stated),"6.51 µM [rising, single point]",38.7%,"6.51 µM [rising, full curve]"
